Laboratory results: PubChem BioAssay AID1259308 (NCATS, 2017)
Test: 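Knock-downs that increase output of a recombinant reporter protein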 (primary screen). Cells: human HEK293 embryonic kidney cells stably expressing firefly luciferase (HEK-CMV-Luc2-Hygro). Reagents: single siRNA against human genes, 0.8 pmol siRNA per well. Timing: 72 h. Measured: 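Reporter luminescence and viable-cell signal on separate replicate plates, given as percent of non-targeting control and median/MAD z-scores, plus per-cell luciferase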. Scale: total luciferase, z-score: higher = more reporter protein produced. Rule for the call: 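An siRNA counts as active if its total luciferase robust z-score exceeds 3; genes with two or more such siRNAs out of three were retested with fresh siRNAs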. Calls: active = raised luciferase; inactive = no rise.
In all, the deposit lists about 59,000 reagents; this is a part drawn at random. About 1,510 of them (2.6%) were called active. 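Calls use total luciferase alone and ignore viability, so some active siRNAs may act by altering cell number.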 Reagents against one gene are numbered here. Further read-outs or replicates are left out here.

total luciferase, z-score, by target gene and reagent
KRTAP13-2: #1 0.345 inactive; #2 0.532 inactive; #3 -0.0446 inactive
REEP1: #1 0.023 inactive; #2 -1.44 inactive; #3 -2.04 inactive
UNC5B: #1 -1.16 inactive; #2 -0.444 inactive; #3 -0.902 inactive
KCTD18: #1 -1.63 inactive; #2 -1.75 inactive; #3 0.967 inactive
RPP38-DT: #1 1.58 inactive; #2 -0.225 inactive; #3 0.779 inactive

Part of the list above in another layout.
KCTD18 #1
- total luciferase, z-score: -1.63
- Outcome: inactive

KCTD18 #2
- total luciferase, z-score: -1.75
- Outcome: inactive

KCTD18 #3
- total luciferase, z-score: 0.967
- Outcome: inactive

The results go on.
total luciferase, z-score, by target gene and reagent
PPM1H: #1 -0.165 inactive; #2 0.866 inactive; #3 -0.308 inactive
UBL3: #1 -0.427 inactive; #2 -1.4 inactive; #3 3.74 active
UGT3A2: #1 0.874 inactive; #2 -1.91 inactive; #3 -0.391 inactive
